Some of the results follow. These are further read-outs of the screen, such as a control signal, another cell line or another target. No call is given for them. Compounds called inactive in the main read-out are mostly missing here. The note in brackets gives the kind of curve behind each potency; many fits are weak.

The assay is described as follows: IkB Signaling. The following applies: ABC-DLBCL IkBa-CBG/CBR dual luciferase ratio (green luciferase fused to IkBa over red control in OCI-Ly3 lymphoma cells), 4 h; measured here: control luc red channel unless noted. In short, it runs like this:
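In this assay, an IκBα–CBG68 fusion accumulates when IKK-driven degradation is blocked; native CBR normalizes for cell number. OCI-Ly3 cells were treated 4 h with compound and doxycycline, then green and red light read after Chroma-Glo addition.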
Take `COc1cc(OC)cc(-n2nnc(-c3nc(-c4ccccc4Cl)no3)c2N)c1`: the AC50 is 5.01 µM [rising, full curve, poor fit].
As to `CC1CCN(C(=O)c2cnn(-c3cccc(Cl)c3)c2C2CCN(C(=O)OC(C)(C)C)CC2)CC1`, the AC50 is 25.1 µM [falling, single point].
As for `COc1ccc(OCC(=O)NCC(c2ccc(Cl)cc2)N2CCCCC2)cc1` (stereo not given), the AC50 was 25.1 µM [falling, partial curve].
As for `COc1ccc(NC(=O)c2c(-c3ccccc3)c(-c3ccccc3)nn(C)c2=O)c(OC)c1`, the concentration at half-maximal activity (AC50) is 10 µM [falling, partial curve].
On to `COc1ccccc1NC(=O)CSc1oc(-c2cccs2)nc1S(=O)(=O)c1ccc(Br)cc1`, for which the AC50 is 7.94 µM [falling, partial curve].
On to `COc1ccc(-c2nc(SCC(=O)Nc3ccc4c(c3)OCO4)c(-c3ccc(OC)cc3)[nH]2)cc1`, for which the AC50 is 6.31 µM [falling, partial curve].
In the case of `Cc1cc(C)cc(OC(=O)c2snnc2C)c1` it was 0.158 µM [rising, full curve, poor fit]; in that of `COC(=O)C1=C(CSc2nc3ccccc3o2)NC(=O)NC1c1cc(C)ccc1C` (stereo not given), 2.51 µM [falling, full curve]; in that of `Cc1cnc(C(=O)OCC(=O)Nc2oc(-c3ccccc3)c(-c3ccccc3)c2C#N)cn1`, 10 µM [falling, partial curve].
For `CCC(Sc1nnc(-c2ccc(C)c(Cl)c2)n1CC)C(=O)Nc1nccs1` (stereo not given), the AC50 is 15.8 µM [falling, partial curve].
Regarding `O=C(Cc1ccccc1)Nc1sc2c(c1C(=O)Nc1ccc(Cl)cc1)CCCC2`, the AC50 is 39.8 µM [rising, single point] [measured here: IkB-luc green channel].
On to `COC(=O)c1cccc(NC(=O)CSc2nc3cccnc3n2C)c1`, for which the AC50 is 7.94 µM [falling, partial curve].
`Cc1cccc(NC(=O)CSc2nc3c([nH]c4ccccc43)c(=O)n2C)c1C`: the AC50 was 0.251 µM [falling, full curve, poor fit].
For the compound `N#C/C(=C\c1ccc(Cl)cc1)c1nc2ccccc2[nH]1`, the AC50 is 7.94 µM [falling, full curve, poor fit].
`Cc1ccc(S(=O)(=O)CC(=O)Nc2sc3c(c2C#N)CCCCC3)cc1`: the concentration at half-maximal activity (AC50) was 12.6 µM [rising, partial curve].
With `CC(C)CCN(Cc1ccco1)C(=O)c1cc2c(Cl)nc3ccccc3c2s1`, the AC50 is 39.8 µM [falling, single point].
Turning to `O=C(O)C1C2C=CC(C2)C1C(=O)Nc1ccc2c(c1)OCCO2` (stereo not given), the AC50 was 7.94 µM [falling, partial curve].
In the case of `CCCOc1ccc(-c2nn(-c3ccccc3)cc2C2NC(=O)NC(C)=C2C(=O)OC)cc1C` (stereo not given), the AC50 is 39.8 µM [falling, single point].
Regarding `CCOc1ccccc1NC(=O)Nc1nnc(N2CCCCCC2)s1`, the AC50 is 25.1 µM [falling, partial curve].
On to `COC(=O)c1ccc(C2c3c(oc4cc(C)c(C)cc4c3=O)C(=O)N2CCCN(C)C)cc1` (stereo not given), for which the concentration at half-maximal activity (AC50) is 3.98 µM [falling, full curve, poor fit].
As to `COc1cc(C(=O)Nc2ccc3oc(-c4ccccc4)nc3c2)cc(OC)c1OC`, the AC50 was 6.31 µM [falling, partial curve].
Regarding `COc1cc(Cl)c(C)cc1NC(=O)CSc1ncc(S(=O)(=O)c2ccc(C(C)(C)C)cc2)c(=O)[nH]1`, the AC50 was 0.316 µM [falling, full curve].
For `O=C1Nc2ccc(S(=O)(=O)Nc3ccccc3O)c3cccc1c23`, the AC50 is 25.1 µM [falling, single point].
For `COc1ccc(NC(=O)CSc2nnc(-c3cccs3)o2)cc1`, the AC50 is 2.51 µM [rising, partial curve].
On to `CCOc1ccccc1Nc1cc(-c2ccccc2)nc(C)n1`, for which the AC50 is 31.6 µM [falling, single point].
As to `CC(=O)C(C(C)=O)c1c(Cl)c(O)c(O)c2c(C(=O)c3ccccc3)coc12`, the AC50 is 10 µM [falling, partial curve].
As to `COc1ccc(-n2ncc3c(NCCC4=CCCCC4)ncnc32)cc1`, the AC50 was 5.01 µM [falling, full curve].
In the case of `NC(=O)c1c(NC(=O)COC(=O)CSc2nnc(-c3ccc(Cl)cc3)o2)sc2c1CCC2` it was 31.6 µM [falling, partial curve].
Turning to `COC(=O)CCc1c(C)c(C(=O)c2ccco2)c2ccccn12`, the AC50 is 31.6 µM [rising, single point] [measured here: IkB-luc green channel].
Consider `Cc1ccc(N2CC(C(=O)Nc3ccc(Br)cc3)CC2=O)cc1` (stereo not given), for which the AC50 was 7.94 µM [falling, partial curve, poor fit].
Turning to `CCC1=Nc2cc(C(=O)NC3CCCC3)ccc2Sc2ccc(Br)cc21`, the AC50 was 6.31 µM [rising, single point] [measured here: IkB-luc green channel].
As for `COc1ccc(C(=O)n2nc(-c3ccco3)nc2NCc2cccs2)cc1`, the AC50 is 25.1 µM [falling, single point].
Consider `CN(C)c1ccc(N/C=C/C(=O)c2ccccc2)cc1`, for which the AC50 was 0.316 µM [falling, full curve].
For the compound `COC(=O)c1ccccc1NC(=O)Cn1nnc2sc(-c3ccccc3)cc2c1=O`, the AC50 is 15.8 µM [falling, single point].
On to `COc1ccc(-c2nc(-c3ccccc3)c(-c3ccc(O)cc3)[nH]2)cc1`, for which the AC50 was 15.8 µM [falling, partial curve].
For `CC1=CC(C)(C)Nc2ccc(OC(=O)c3ccco3)cc21`, the AC50 is 6.31 µM [falling, full curve].
On to `COc1ccccc1C(=O)Nc1nc(-c2ccccc2)ns1`, for which the AC50 was 25.1 µM [falling, partial curve].
`COc1cccc(C(=O)Nc2ccc(NC(C)=O)cn2)c1`: the AC50 is 12.6 µM [falling, partial curve].
Next, `COc1ccc(Cn2c(C(=O)O)c(CNC3CCCCCC3)c3ccc(OC)cc32)cc1`: 39.8 µM [falling, single point].
For `O=C(/C=C/c1ccc(F)cc1)Nc1nc2n(n1)C(c1ccc(Cl)cc1)C=C(c1ccccc1)N2` (stereo not given), the AC50 is 25.1 µM [falling, single point].

For orientation: AC50 means the concentration at which the activity in the assay is half-maximal.

(Values after PubChem BioAssay AID445 (National Center for Advancing Translational Sciences (NCATS), 2006).)
